PubChem BioAssay AID1259425 | University of Nebraska Medical Center | 2018
Here is an unselected part of about 14,000 reagents. Not stated in the record: the time to read-out.

Aim: 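Compare each knockdown with KSR1 silencing using changes in marker transcripts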 (primary screen)
Cells: HCT116 human colon cancer cells
Knock-down reagent: siRNA pool against human genes, 50 nM siRNA
Measurement: 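mRNA of six signature genes measured together by branched-DNA assay after 50 nM siRNA pool, blank removed, divided by geometric mean of two housekeeping genes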
Scale: BNIP3L mRNA: higher = more BNIP3L transcript after knockdown; NDRG1 mRNA: higher = more NDRG1 transcript after knockdown; BNIP3 mRNA: higher = more BNIP3 transcript after knockdown; ALDOC mRNA: higher = more ALDOC transcript after knockdown; ACSL5 mRNA: higher = more ACSL5 transcript after knockdown

gene knocked down | BNIP3L mRNA, set 1 | NDRG1 mRNA, set 1 | BNIP3 mRNA, set 1 | ALDOC mRNA, set 1 | ACSL5 mRNA, set 1
AK5 (GeneID 26289) | 0.0512 | 0.0937 | 0.323 | 0.00183 | 0.149
IFIT3 (GeneID 3437) | 0.0988 | 0.218 | 0.265 | 0.0299 | 0.0816
NECAB3 (GeneID 63941) | 0.076 | 0.224 | 0.297 | 0.0209 | 0.131
MTMR2 (GeneID 8898) | 0.114 | 0.119 | 0.33 | 0.0286 | 0.218
RRP1B (GeneID 23076) | 0.102 | 0.196 | 0.281 | 0.00927 | 0.148
ACIN1 (GeneID 22985) | 0.0954 | 0.133 | 0.248 | 0.0391 | 0.134
CDR2 (GeneID 1039) | 0.248 | 0.588 | 0.601 | 0.0406 | 0.223
CACFD1 (GeneID 11094) | 0.103 | 0.151 | 0.228 | 0.0192 | 0.215
NTSR2 (GeneID 23620) | 0.162 | 0.328 | 0.392 | 0.0839 | 0.118
ZNF586 (GeneID 54807) | 0.168 | 0.82 | 0.22 | 0.0199 | 0.251
OBI1 (GeneID 79596) | 0.174 | 0.169 | 0.288 | 0.0596 | 0.148
POLR1H (GeneID 30834) | 0.0839 | 0.564 | 0.304 | 0.0291 | 0.307
GPX7 (GeneID 2882) | 0.331 | 0.557 | 0.507 | 0.0359 | 0.178
BNIP3 (GeneID 664) | 0.0413 | 0.171 | -0.000345 | 0.0108 | 0.23
H2BC8 (GeneID 8339) | 0.144 | 0.603 | 0.224 | 0.0298 | 0.152
TNNT2 (GeneID 7139) | 0.0676 | 0.189 | 0.27 | 0.0331 | 0.126
TMEM214 (GeneID 54867) | 0.079 | 0.192 | 0.287 | 0.0341 | 0.22
CASK (GeneID 8573) | 0.11 | 0.0924 | 0.257 | 0.0124 | 0.102
CHRNA9 (GeneID 55584) | 0.0695 | 0.105 | 0.253 | 0.0141 | 0.165
UNC45A (GeneID 55898) | 0.0785 | 0.116 | 0.312 | 0.034 | 0.123

Entries listed so far whose gene name starts with C or c:
gene knocked down | BNIP3L mRNA, set 1 | NDRG1 mRNA, set 1 | BNIP3 mRNA, set 1 | ALDOC mRNA, set 1 | ACSL5 mRNA, set 1
CDR2 (GeneID 1039) | 0.248 | 0.588 | 0.601 | 0.0406 | 0.223
CACFD1 (GeneID 11094) | 0.103 | 0.151 | 0.228 | 0.0192 | 0.215
CASK (GeneID 8573) | 0.11 | 0.0924 | 0.257 | 0.0124 | 0.102
CHRNA9 (GeneID 55584) | 0.0695 | 0.105 | 0.253 | 0.0141 | 0.165
